PubChem BioAssay AID493246 – Drosophila RNAi Screening Center – 2011
In all, the deposit lists about 21,000 reagents; this is an unselected part of those with a known target gene and a result. Of all reagents, 429 (2%) are marked active. 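Values are raw and not normalised between plates; calls rest on per-plate z-scores that were not deposited.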 Entries without a mark were called inactive. Not stated in the record: the amount of reagent, the time to read-out.

- Test: 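Genome-wide search for dsRNAs that reduce cell number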 (primary screen)
- Cell system: Drosophila Kc and S2R+ cells
- Knock-down reagent: long dsRNA against Drosophila genes
- Measurement: 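Cell number per well after knock-down, printed as raw plate values; calls were based on per-plate z-scores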
- Direction: Kc cell number and S2R+ cell number: higher = more cells remaining
- Hit rule: 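Counted as a hit if cell number falls by a z-score of at least 3 within its plate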

The first 4 records as a preview:
gene | dsRNA | Kc cell number, rep 1 | Kc cell number, rep 2 | S2R+ cell number, rep 1 | S2R+ cell number, rep 2
ind | DRSC11355 | 1.24e6 (active) | 1.11e6 | 5.92e5 | 7.58e5
Rfx | DRSC16820 | 1.52e6 | 1.49e6 | 1.20e6 | 1.26e6
CG5618 | DRSC11780 | 1.85e6 | 2.00e6 | 1.21e6 | 1.27e6
ZIPIC | DRSC16349 | 5.42e5 | – | 8.45e5 | –

The listing, from the start:
gene | dsRNA | Kc cell number, rep 1 | Kc cell number, rep 2 | S2R+ cell number, rep 1 | S2R+ cell number, rep 2
ind | DRSC11355 | 1.24e6 (active) | 1.11e6 | 5.92e5 | 7.58e5
Rfx | DRSC16820 | 1.52e6 | 1.49e6 | 1.20e6 | 1.26e6
CG5618 | DRSC11780 | 1.85e6 | 2.00e6 | 1.21e6 | 1.27e6
ZIPIC | DRSC16349 | 5.42e5 | – | 8.45e5 | –
link | DRSC06368 | 1.54e6 | 1.52e6 | 9.85e5 | 1.06e6
CG15721 | DRSC19688 | 1.75e6 | 1.63e6 | 1.06e6 | 1.19e6
CG10799 | DRSC06002 | 1.44e6 | 1.47e6 | 1.21e6 | 1.37e6
tin | DRSC17083 | 1.46e6 | 1.67e6 | 1.21e6 | 1.39e6
Pex13 | DRSC06877 | 1.53e6 | 1.59e6 | 1.11e6 | 1.15e6
Phyhd1 | DRSC14911 | 1.59e6 | 1.75e6 | 1.42e6 | 1.56e6
Sh | DRSC19214 | 8.44e5 (active) | 9.16e5 | 4.48e5 | 6.19e5
Sh | DRSC19220 | 1.29e6 | 1.59e6 | 1.18e6 | 1.23e6
Sh | DRSC19785 | 1.65e6 | 1.69e6 | 1.18e6 | 1.20e6
Sh | DRSC20055 | 1.50e6 | 1.51e6 | 1.02e6 | 1.13e6
CG18735 | DRSC04312 | 1.53e6 | 1.61e6 | 1.20e6 | 3.48e5
CG14234 | DRSC19317 | 1.31e6 | 1.80e6 | 1.16e6 | 1.28e6
CG14234 | DRSC19589 | 1.53e6 | 1.55e6 | 1.04e6 | 1.19e6
Ocrl | DRSC18576 | 5.57e5 | – | 7.27e5 | –
kz | DRSC18786 | 1.48e6 | 1.51e6 | 1.15e6 | 1.35e6
CG4957 | DRSC02793 | 1.90e6 | 1.88e6 | 1.22e6 | 1.39e6
VhaSFD | DRSC03471 | 1.20e6 | 1.28e6 | 1.30e6 | 1.37e6
CG7362 | DRSC16236 | 1.27e6 | 1.44e6 | 1.07e6 | 1.22e6
mRpL45 | DRSC16146 | 1.56e6 | 1.51e6 | 8.30e5 | 9.60e5
CG3494 | DRSC04375 | 1.50e6 | 1.58e6 | 1.31e6 | 1.39e6
CG3280 (retired record) | DRSC10356 | 1.39e6 | 1.43e6 | 1.19e6 | 1.30e6
CG3746 | DRSC04412 | 1.58e6 | 1.60e6 | 1.27e6 | 1.34e6
CG31493 | DRSC12583 | 1.74e6 | 1.66e6 | 1.35e6 | 1.45e6
peo | DRSC05995 | 1.34e6 | 1.39e6 | 1.05e6 | 1.17e6
CG14864 | DRSC14987 | 1.30e6 | 1.47e6 | 1.24e6 | 1.36e6
CG15818 | DRSC02505 | 1.40e6 | 1.37e6 | 6.13e5 | 8.01e5
ppk15 | DRSC14733 | 1.78e6 | 1.82e6 | 9.17e5 | 9.82e5
CG17929 | DRSC15291 | 1.30e6 | 1.47e6 | 1.11e6 | 1.17e6
Ufsp1 | DRSC04958 | 1.41e6 | 1.48e6 | 9.71e5 | 1.06e6
CG9663 | DRSC00724 | 1.34e6 | 1.37e6 | 8.64e5 | 9.74e5
CG10979 | DRSC12153 | 1.31e6 | 1.31e6 | 1.35e6 | 1.48e6
EbpIII | DRSC04638 | 1.49e6 | 1.53e6 | 1.24e6 | 1.34e6
unc-104 | DRSC07710 | 1.64e6 | 1.70e6 | 1.28e6 | 1.39e6
CG34198 | DRSC05803 | 4.68e5 | – | 6.73e5 | –
CG13698 | DRSC10047 | 1.59e6 | 1.59e6 | 1.23e6 | 1.38e6
CG12035 | DRSC08238 | 1.30e6 | 1.47e6 | 1.26e6 | 1.19e6
Cyp317a1 | DRSC07366 | 1.55e6 | 1.48e6 | 1.22e6 | 1.34e6
Desat2 | DRSC15919 | 1.40e6 | 1.43e6 | 1.30e6 | 1.37e6
dally | DRSC08954 | 1.36e6 | 1.45e6 | 1.12e6 | 1.28e6
dally | DRSC11338 | 1.22e6 | 1.25e6 | 1.27e6 | 1.15e6
CG1504 | DRSC20513 | 1.49e6 | 1.54e6 | 8.56e5 | 9.52e5
CG17036 | DRSC02564 | 1.80e6 | 2.00e6 | 1.27e6 | 1.40e6
CG13280 | DRSC02253 | 1.54e6 | 1.63e6 | 1.10e6 | 1.23e6
Sec6 | DRSC06932 | 1.46e6 | 1.66e6 | 1.17e6 | 1.25e6
CG11035 | DRSC14287 | 1.52e6 | 1.60e6 | 1.22e6 | 1.31e6
CG34202 | DRSC05907 | 4.98e5 | – | 7.70e5 | –
Stat92E | DRSC16870 | 1.48e6 | 1.55e6 | 1.18e6 | 1.20e6
CG7201 | DRSC10786 | 1.59e6 | 1.43e6 | 1.12e6 | 1.23e6
lncRNA:CR42862 | DRSC08348 | 1.61e6 | 1.61e6 | 1.23e6 | 1.33e6
Fatp2 | DRSC03971 | 6.16e5 | – | 9.85e5 | –
Fatp2 | DRSC04178 | 1.61e6 | 1.65e6 | 1.33e6 | 1.45e6
Fatp2 | DRSC04330 | 1.63e6 | 1.70e6 | 1.39e6 | 1.43e6
CG43901 | DRSC19397 | 1.52e6 | 1.46e6 | 1.06e6 | 1.16e6
CG43901 | DRSC19652 | 1.46e6 | 1.38e6 | 7.66e5 | 8.17e5
pnut | DRSC07666 | 1.24e6 | 1.34e6 | 9.83e5 | 1.08e6
Cpr64Ab | DRSC08461 | 1.70e6 | 1.55e6 | 1.09e6 | 1.33e6
CG18507 | DRSC01334 | 1.55e6 | 1.58e6 | 1.12e6 | 1.24e6
CG18507 | DRSC01914 | 1.85e6 | 1.84e6 | 1.44e6 | 1.57e6
Alk | DRSC05918 | 1.63e6 | 1.61e6 | 1.22e6 | 1.28e6
CG4270 | DRSC00648 | 1.53e6 | 1.56e6 | 1.11e6 | 1.21e6
CG11906 | DRSC06096 | 1.74e6 | 1.78e6 | 1.37e6 | 1.55e6
Dhc64C | DRSC08656 | 1.40e6 | 1.40e6 | 1.25e6 | 1.24e6
swm | DRSC02012 | 1.55e6 | 1.56e6 | 1.11e6 | 1.25e6
Pop4 | DRSC10955 | 1.35e6 | 1.30e6 | 1.18e6 | 1.22e6
Gat | DRSC17144 | 1.53e6 | 1.50e6 | 1.08e6 | 1.19e6
Kr-h1 | DRSC00908 | 1.45e6 | 1.38e6 | 1.07e6 | 1.22e6
Kr-h1 | DRSC03355 | 1.44e6 | 1.38e6 | 5.72e5 | 7.66e5
CG10748 | DRSC09797 | 1.44e6 | 1.37e6 | 1.30e6 | 1.38e6
CG3036 | DRSC00260 | 1.57e6 | 1.63e6 | 1.18e6 | 1.27e6
CG3036 | DRSC00562 | 1.21e6 | 1.36e6 | 5.25e5 | 6.16e5
CG14969 | DRSC08428 | 1.45e6 | 1.61e6 | 1.17e6 | 1.00e6
